# These are yes or no findings as the source states them, for the method shown. Binding seen in cells or lysates may run through a third protein. A result given as binding can be weak or reduced; the word gives no strength.
# Biological target: T1, S100P (human) (UniProt P25815)
# T1 sequence: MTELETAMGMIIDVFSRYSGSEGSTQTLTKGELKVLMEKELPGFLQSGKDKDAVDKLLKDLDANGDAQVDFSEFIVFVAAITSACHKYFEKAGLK
# Experiment: co-IP; cell lysates (200 μg of total protein, M-PER) incubated with 2 μg of isotype or anti-DDK antibodies overnight, then protein A-agarose beads 2 h at 4°C; blots for DDK and integrin α7
substance,measurement,value
integrin α7 (human (endogenous in CL1-0)) (receptor),binding,binds

# Reference: publication PMC4745748
